According to the supplement of paper PMC10849652:
The list shows a part of the results.

Sequences of proteins named here, by UniProt entry; tags and fusion partners are left off. A change or cut given only in a name is not applied to a line headed by its entry.
UniProt O14730: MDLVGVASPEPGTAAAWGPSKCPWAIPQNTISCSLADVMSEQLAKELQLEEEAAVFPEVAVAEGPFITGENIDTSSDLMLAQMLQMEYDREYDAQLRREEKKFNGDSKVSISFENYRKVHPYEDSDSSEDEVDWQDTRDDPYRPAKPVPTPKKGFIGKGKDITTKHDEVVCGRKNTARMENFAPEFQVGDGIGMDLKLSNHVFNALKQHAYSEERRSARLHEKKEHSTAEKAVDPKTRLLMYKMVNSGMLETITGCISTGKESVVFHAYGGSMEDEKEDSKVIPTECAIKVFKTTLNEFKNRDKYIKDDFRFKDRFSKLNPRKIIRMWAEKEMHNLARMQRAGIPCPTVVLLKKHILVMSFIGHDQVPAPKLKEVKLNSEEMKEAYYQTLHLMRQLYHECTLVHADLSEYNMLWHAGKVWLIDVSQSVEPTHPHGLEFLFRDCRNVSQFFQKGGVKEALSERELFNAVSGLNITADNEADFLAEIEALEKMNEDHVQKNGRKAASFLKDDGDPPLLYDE
UniProt Q9H9Y2: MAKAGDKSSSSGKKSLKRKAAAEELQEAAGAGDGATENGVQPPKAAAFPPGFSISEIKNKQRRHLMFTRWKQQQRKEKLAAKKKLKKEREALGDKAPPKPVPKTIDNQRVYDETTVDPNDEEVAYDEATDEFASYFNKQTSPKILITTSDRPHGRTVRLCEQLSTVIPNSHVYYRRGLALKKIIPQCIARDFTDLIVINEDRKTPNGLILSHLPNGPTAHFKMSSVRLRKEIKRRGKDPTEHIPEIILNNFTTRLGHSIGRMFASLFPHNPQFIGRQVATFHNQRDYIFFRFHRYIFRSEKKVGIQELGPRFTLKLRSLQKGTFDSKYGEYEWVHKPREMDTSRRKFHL
UniProt Q4ADV7: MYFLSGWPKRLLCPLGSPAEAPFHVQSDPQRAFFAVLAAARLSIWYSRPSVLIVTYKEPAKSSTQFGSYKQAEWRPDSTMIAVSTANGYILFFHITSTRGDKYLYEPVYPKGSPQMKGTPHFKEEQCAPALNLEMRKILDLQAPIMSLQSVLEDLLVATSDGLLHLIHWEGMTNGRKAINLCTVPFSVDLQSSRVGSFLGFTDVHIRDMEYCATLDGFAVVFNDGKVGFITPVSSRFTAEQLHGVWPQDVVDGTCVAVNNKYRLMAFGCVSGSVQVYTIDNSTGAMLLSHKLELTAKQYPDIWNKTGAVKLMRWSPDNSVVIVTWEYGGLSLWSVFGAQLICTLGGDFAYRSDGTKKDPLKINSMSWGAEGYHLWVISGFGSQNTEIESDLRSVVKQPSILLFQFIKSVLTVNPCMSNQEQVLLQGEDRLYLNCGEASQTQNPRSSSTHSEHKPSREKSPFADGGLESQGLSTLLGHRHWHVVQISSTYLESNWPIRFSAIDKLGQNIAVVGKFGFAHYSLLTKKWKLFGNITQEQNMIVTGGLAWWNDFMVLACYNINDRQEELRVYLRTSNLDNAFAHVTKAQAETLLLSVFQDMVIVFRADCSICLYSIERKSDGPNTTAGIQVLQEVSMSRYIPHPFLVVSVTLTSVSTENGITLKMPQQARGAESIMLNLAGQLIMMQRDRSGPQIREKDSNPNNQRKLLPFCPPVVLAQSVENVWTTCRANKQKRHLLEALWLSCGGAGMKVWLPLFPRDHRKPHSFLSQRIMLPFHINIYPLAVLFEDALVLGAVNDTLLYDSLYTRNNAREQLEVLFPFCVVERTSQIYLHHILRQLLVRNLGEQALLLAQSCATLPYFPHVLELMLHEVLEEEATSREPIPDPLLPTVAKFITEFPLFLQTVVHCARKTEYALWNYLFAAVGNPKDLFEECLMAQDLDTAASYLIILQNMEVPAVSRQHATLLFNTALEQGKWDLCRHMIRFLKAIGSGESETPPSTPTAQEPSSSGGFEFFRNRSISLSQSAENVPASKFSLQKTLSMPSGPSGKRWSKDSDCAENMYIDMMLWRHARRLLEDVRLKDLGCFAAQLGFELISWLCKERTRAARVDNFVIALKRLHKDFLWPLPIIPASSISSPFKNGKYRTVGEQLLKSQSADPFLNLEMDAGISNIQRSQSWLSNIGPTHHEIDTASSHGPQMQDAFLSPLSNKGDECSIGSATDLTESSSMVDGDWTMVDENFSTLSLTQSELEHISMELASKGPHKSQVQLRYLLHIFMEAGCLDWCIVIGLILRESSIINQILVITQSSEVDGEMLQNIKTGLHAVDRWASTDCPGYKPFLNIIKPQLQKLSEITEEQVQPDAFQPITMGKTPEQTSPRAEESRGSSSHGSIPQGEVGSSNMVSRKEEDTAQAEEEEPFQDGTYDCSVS
UniProt P61586, whole entry, looked up: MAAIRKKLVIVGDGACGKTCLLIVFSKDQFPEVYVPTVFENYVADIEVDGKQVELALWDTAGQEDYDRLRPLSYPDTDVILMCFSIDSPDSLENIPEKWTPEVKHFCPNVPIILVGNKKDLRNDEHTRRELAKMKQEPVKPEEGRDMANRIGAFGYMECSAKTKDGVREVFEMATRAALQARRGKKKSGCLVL
UniProt Q06587: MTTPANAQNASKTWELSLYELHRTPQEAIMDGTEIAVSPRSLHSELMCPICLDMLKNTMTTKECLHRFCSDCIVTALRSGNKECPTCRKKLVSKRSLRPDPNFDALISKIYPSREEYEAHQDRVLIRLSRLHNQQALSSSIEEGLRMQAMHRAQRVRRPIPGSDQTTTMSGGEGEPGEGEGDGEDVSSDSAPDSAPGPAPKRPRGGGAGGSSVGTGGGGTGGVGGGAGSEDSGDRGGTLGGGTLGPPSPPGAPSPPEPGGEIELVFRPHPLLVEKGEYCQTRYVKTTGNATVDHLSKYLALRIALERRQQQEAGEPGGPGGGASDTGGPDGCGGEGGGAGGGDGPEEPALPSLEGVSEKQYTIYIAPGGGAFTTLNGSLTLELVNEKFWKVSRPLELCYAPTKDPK
UniProt Q13546: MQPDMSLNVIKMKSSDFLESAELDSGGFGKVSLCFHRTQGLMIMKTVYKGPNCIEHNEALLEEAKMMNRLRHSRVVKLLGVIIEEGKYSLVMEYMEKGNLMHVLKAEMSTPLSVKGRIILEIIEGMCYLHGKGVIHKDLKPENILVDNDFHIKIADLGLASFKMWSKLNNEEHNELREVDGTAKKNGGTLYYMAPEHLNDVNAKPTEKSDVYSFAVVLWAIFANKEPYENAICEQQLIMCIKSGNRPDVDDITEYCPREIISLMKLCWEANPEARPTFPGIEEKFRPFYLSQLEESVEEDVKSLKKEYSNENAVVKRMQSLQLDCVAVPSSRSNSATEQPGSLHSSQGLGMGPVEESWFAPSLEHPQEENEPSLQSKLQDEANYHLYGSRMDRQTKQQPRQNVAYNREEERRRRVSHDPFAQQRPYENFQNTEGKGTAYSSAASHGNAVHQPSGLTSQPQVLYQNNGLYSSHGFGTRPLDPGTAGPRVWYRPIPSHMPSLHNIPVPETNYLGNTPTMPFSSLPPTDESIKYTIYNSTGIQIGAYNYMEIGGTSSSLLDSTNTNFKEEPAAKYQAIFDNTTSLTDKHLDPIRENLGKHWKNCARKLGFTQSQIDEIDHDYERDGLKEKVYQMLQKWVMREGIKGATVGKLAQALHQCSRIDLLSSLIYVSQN
UniProt Q9H7B2: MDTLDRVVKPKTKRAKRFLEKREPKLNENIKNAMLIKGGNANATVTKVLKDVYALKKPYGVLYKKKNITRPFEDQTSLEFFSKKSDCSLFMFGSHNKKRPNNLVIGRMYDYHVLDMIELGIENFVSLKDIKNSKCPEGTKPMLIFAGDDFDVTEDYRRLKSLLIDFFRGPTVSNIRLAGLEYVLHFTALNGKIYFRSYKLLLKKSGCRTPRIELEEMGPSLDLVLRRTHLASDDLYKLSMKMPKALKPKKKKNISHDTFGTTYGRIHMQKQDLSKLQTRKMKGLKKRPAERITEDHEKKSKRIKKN
UniProt Q15287: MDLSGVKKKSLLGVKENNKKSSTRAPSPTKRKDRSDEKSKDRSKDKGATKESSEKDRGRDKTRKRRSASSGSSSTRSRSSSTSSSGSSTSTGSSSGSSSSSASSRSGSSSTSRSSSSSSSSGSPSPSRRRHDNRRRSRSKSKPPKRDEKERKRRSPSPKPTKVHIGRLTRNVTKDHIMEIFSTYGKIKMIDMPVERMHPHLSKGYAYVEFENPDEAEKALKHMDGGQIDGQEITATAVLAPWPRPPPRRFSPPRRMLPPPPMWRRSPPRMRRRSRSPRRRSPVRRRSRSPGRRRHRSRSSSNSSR
UniProt P49247: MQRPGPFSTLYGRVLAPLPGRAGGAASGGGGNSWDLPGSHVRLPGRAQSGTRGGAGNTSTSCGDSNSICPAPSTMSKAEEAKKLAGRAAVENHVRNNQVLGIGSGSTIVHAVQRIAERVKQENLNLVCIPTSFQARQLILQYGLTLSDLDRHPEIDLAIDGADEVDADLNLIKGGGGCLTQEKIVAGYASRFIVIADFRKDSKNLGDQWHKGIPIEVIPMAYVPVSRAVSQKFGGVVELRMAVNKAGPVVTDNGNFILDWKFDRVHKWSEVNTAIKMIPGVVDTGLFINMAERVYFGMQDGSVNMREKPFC
UniProt Q9NVN3: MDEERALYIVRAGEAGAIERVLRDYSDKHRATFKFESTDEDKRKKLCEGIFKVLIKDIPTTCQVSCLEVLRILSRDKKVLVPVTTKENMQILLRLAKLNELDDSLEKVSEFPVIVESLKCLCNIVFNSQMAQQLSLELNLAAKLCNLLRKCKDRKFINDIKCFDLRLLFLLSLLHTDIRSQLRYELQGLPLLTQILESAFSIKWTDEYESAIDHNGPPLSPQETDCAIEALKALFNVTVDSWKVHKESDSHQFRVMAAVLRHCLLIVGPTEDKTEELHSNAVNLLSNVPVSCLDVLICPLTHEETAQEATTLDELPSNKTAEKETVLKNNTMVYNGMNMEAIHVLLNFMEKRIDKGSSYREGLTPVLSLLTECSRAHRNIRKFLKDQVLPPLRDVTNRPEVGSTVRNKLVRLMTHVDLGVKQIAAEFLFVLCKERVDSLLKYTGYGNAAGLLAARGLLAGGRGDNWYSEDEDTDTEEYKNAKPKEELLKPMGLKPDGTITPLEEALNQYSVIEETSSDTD
UniProt P52758: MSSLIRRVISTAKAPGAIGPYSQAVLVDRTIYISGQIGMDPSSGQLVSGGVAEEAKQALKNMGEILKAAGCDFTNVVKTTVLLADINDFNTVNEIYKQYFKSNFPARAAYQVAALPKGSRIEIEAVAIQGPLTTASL
UniProt Q9UBF6, whole entry, looked up: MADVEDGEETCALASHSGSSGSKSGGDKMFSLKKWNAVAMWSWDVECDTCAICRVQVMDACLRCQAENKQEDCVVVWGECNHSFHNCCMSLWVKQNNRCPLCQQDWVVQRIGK
UniProt P15927: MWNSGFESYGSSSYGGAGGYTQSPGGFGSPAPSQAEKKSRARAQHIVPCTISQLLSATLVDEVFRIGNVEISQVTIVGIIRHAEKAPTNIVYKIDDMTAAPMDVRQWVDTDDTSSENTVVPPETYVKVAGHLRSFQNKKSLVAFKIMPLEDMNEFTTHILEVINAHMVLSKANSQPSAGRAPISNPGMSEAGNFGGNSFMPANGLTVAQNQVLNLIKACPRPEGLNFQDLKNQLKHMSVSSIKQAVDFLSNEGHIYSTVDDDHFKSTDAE
UniProt Q8IXI2: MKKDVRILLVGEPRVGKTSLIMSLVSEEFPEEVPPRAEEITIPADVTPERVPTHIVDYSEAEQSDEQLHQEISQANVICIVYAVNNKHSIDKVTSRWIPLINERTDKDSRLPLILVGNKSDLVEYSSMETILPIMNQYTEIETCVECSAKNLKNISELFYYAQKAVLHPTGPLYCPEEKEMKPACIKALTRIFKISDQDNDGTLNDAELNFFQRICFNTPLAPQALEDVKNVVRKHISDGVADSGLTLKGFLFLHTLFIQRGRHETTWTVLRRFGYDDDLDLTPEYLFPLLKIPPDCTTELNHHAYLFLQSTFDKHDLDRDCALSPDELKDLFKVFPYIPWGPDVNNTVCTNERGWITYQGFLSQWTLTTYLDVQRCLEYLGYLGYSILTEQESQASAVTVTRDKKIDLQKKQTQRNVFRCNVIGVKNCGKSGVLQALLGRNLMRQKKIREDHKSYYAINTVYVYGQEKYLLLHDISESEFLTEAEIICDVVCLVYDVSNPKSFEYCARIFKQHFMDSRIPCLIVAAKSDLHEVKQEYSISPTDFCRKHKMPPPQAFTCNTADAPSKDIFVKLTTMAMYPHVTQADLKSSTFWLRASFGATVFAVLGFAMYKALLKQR

Tests used:
Test in all cases: log2 fold change, soluble protein after heating vs DMSO (PISA); higher = thermal stabilisation; K562 lysate, 10 uM; active = over 0.2 and 3.5 SD of the protein, either way, in both replicates (recomputed)
[1] = compound: C1=CC=C(C=C1)[C@H](COC2=CC3=C(C=C2)NC(=O)N3)NC(=O)C4=CC=CN(C4=O)CC5=CC(=C(C=C5)F)F
Method in brief: (§1)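 A 30 min treatment with 10 μM compound was applied to crude K562 extract at 1 mg/mL protein in PBS pH 7.4 with 1 mM MgCl2. Heating for 3 min spanned 48°C-58°C, after which aliquots were pooled, adjusted to 0.5% NP-40 at 4°C and spun at 21,000xg for 90 min. TMTpro 16plex LC-MS/MS of the supernatant, with channel sums equalised, gave values recorded as log-two fold change in thermal stability against solvent controls, from duplicates.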

[2] = compound: CC1=C(SC2=C1C(=N[C@H](C3=NN=C(N32)C)CC(=O)N)C4=CC=C(C=C4)Cl)C
Method in brief: as §1

[3] = compound: CC1=C2C(=CC=C1)N=C(N(C2=O)C3=CC=CC=C3C)CN4C=NC5=C(N=CN=C54)N
Method in brief: as §1

[4] = compound: Cc1sc2c(c1C)C(c1ccc(Cl)cc1)=N[C@@H](CC(=O)OC(C)(C)C)c1nnc(C)n1-2
Method in brief: as §1

[5] = compound: c1ccc([C@@H]2C[C@H]2NC2CCNCC2)cc1
Method in brief: as §1

Measured: log2 fold change

RPL24 (UniProt P83731)
inactive: [1] 0.066 | [2] -0.009 | [3] 0.016 | [4] 0 | [5] -0.02

RIOK3 (UniProt O14730)
inactive: [1] 0.002 | [2] 0.052 | [3] 0.053 | [4] -0.007 | [5] 0.016

RHEB (UniProt Q15382)
inactive: [1] -0.029 | [2] 0.069 | [3] -0.008 | [4] -0.025 | [5] -0.003

RPF1 (UniProt Q9H9Y2)
inactive: [1] 0.089 | [2] -0.055

RPL31 (UniProt P62899)
inactive: [1] 0.016 | [2] 0.013 | [3] -0.027 | [4] 0.041 | [5] -0.022

RIC1 (UniProt Q4ADV7)
inactive: [1] -0.086 | [2] 0.186 | [3] 0 | [4] 0.081 | [5] 0.138

RHOA (UniProt P61586)
inactive: [1] 0.177 | [2] 0.06 | [3] 0.038 | [4] 0.02 | [5] 0.07

RPL12 (UniProt P30050)
inactive: [1] 0.007 | [2] -0.013 | [3] -0.025 | [4] -0.031 | [5] -0.045

RPL21 (UniProt P46778)
inactive: [1] 0.007 | [2] 0.012 | [3] 0.009 | [4] 0.023 | [5] -0.049

Random excerpt: 2 entries already listed
RPL31 (UniProt P62899)
inactive: [1] 0.016 | [2] 0.013 | [3] -0.027 | [4] 0.041 | [5] -0.022

RHOA (UniProt P61586)
inactive: [1] 0.177 | [2] 0.06 | [3] 0.038 | [4] 0.02 | [5] 0.07

Following part:

RING1 (UniProt Q06587)
inactive: [1] 0.004 | [2] 0.025 | [3] 0.008 | [4] 0.032 | [5] -0.021

RIPK1 (UniProt Q13546)
inactive: [1] -0.019 | [2] -0.015 | [3] -0.009 | [4] -0.04 | [5] -0.021

RPF2 (UniProt Q9H7B2)
inactive: [1] 0.092 | [2] -0.124 | [3] 0.089 | [4] 0.013 | [5] 0.104

RNPS1 (UniProt Q15287)
inactive: [1] 0.014 | [2] -0.003 | [3] 0.06 | [4] 0.036 | [5] 0.016

RPL23 (UniProt P62829)
inactive: [1] 0.008 | [2] -0.001 | [3] 0.02 | [4] 0.008 | [5] 0.011

RPIA (UniProt P49247)
inactive: [1] -0.037 | [2] 0.018 | [3] -0.005 | [4] -0.042 | [5] 0

RIC8B isoform 1 (UniProt Q9NVN3)
inactive: [1] -0.029 | [2] -0.011 | [3] -0.054 | [4] -0.146 | [5] 0.026

RPL28 (UniProt P46779)
inactive: [1] 0.042 | [2] -0.02 | [3] 0.001 | [4] -0.008 | [5] 0.041

RPL36 (UniProt Q9Y3U8)
inactive: [1] 0.009 | [2] 0.02 | [3] -0.012 | [4] 0.015 | [5] -0.045

ROCK2 (UniProt O75116)
inactive: [1] -0.009 | [2] 0 | [3] 0.005 | [4] 0 | [5] -0.072

RPL35 (UniProt P42766)
inactive: [1] 0.012 | [2] 0.006 | [3] -0.026 | [4] 0.014 | [5] -0.031

RIDA (UniProt P52758)
inactive: [1] 0.025 | [2] -0.091 | [3] -0.01 | [4] -0.029 | [5] 0.012

RNF7 (UniProt Q9UBF6)
inactive: [1] -0.008 | [2] -0.008 | [3] 0.043 | [4] 0.046 | [5] -0.274

RPA2 isoform 3 (UniProt P15927)
inactive: [1] -0.008 | [2] 0.046 | [3] -0.021 | [4] -0.075 | [5] -0.086

RHOT1 isoform 3 (UniProt Q8IXI2)
inactive: [1] -0.031 | [2] -0.061 | [3] -0.029 | [4] 0.029 | [5] -0.019

RPL10 (UniProt F8W7C6)
inactive: [1] -0.026 | [2] 0.078 | [3] 0.025 | [4] -0.132 | [5] -0.092
